Source: PubChem BioAssay AID1671190 (National Center for Advancing Translational Sciences (NCATS), 2021)
The campaign covered roughly 580,000 compounds. About 6,100 (1.1%) were called active. The shares of active, inactive and inconclusive entries below differ from those in the screen. Calls follow the shape of the dose curve; as a rule, active = well fitted inhibition curve with a large enough effect; inconclusive = small, poorly fitted or top-dose-only effect, or another doubt; inactive = no such curve, though single readings can be large or run the other way. Where the call is inconclusive, the potency comes from a doubtful curve fit.

Protein sequences, listed by entry. Tags and fused reporters are not part of them. Lines headed by an entry give the natural chain unless they say otherwise; changes in a name come on top.
UniProt P18054: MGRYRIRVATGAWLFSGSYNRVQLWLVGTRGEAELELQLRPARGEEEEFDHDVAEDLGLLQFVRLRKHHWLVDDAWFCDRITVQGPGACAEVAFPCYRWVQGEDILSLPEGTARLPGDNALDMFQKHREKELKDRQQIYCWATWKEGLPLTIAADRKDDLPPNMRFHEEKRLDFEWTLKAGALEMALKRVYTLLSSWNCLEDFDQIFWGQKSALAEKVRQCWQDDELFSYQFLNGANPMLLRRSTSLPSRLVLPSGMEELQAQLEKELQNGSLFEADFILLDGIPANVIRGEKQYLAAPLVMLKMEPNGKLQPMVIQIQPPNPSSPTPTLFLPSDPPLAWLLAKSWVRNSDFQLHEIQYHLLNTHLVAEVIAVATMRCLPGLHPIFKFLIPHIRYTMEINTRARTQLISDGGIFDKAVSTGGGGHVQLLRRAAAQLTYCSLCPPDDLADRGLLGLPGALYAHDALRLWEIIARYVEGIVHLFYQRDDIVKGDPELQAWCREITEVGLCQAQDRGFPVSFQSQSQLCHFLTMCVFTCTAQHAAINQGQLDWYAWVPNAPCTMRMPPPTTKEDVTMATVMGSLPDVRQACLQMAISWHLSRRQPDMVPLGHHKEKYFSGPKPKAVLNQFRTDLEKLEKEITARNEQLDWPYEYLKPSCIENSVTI

biological target: Polyunsaturated fatty acid lipoxygenase ALOX12 (Homo sapiens) (UniProt P18054); assay: Primary qHTS assay for inhibitors of human arachidonate 12S-lipoxygenase (ALOX12): Round 2; conditions: purified 12hLO, xylenol orange hydroperoxide absorbance; activity change, negative = inhibition: at 108 µM (top of the series) unless noted
Method in brief: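 Purified human 12hLO (150 nM final) in 25 mM Hepes, 0.01% Triton X-100, pH 7.0 was preincubated 15 min at room temperature with compound. Then 40 uM arachidonic acid was added, 30 min. Hydroperoxide was read by Fe-XO absorbance ratio 573/405 nm.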
% is scaled to controls: 0 for no effect and ±100 for the full control effect; potency is read from the fitted curve at half-maximal effect.

| Structure (SMILES) | Potency | activity change, negative = inhibition |
| --- | --- | --- |
| CCN(Cc1ccncc1)Cc1c(O)ccc2ccccc12 | inconclusive: 2.24 µM [inhibitor, full curve, poor fit] | – |
| C/C(=N\NC(N)=S)c1ccccc1 | inconclusive: 22.4 µM [inhibitor, partial curve, poor fit] | – |
| COC(=O)c1ccc(CSc2cc(C)c3cc(C)cc(C)c3n2)o1 | – | inactive: 0% |
| CCCCn1cnc2c1c(=O)n(CC(=O)Nc1ccc3c(c1)OCCO3)c(=O)n2Cc1ccccc1 | inconclusive: 112 µM [inhibitor, partial curve, poor fit] | – |
| Cc1ccc2c(CN3CCN(S(=O)(=O)c4ccc5c(c4)OCCO5)CC3)cc(=O)oc2c1C | inactive | – |
| COc1cccc(Cn2c(=O)c(-c3ccc(Cl)cc3)nc3cnc(N4CCOCC4)nc32)c1 | inconclusive: 100 µM [inhibitor, single point] | – |
| O=C(NC1C2CC3CC(C2)CC1C3)c1cccc(Br)c1 (configuration not stated) | – | inactive: -20.3% |
| CCCC(=O)Nc1ccc(Cl)c(NC(=O)c2cccc3ccccc23)c1 | inconclusive: 31.6 µM [inhibitor, partial curve, poor fit] | – |
| CCCNc1nc(Cl)nc(NC(C)(C)C)n1 | inconclusive: 44.7 µM [inhibitor, partial curve, poor fit] | – |
| O=C1CCC(=O)N1CCSC(=S)N1CCOCC1 | inconclusive: 112 µM [inhibitor, single point] | – |
| COc1cc(-c2n[nH]c(=S)n2-c2cccc(C(F)(F)F)c2)cc(OC)c1OC | inconclusive: 44.7 µM [inhibitor, partial curve, poor fit] | – |
| O=C(O)C1CC=CCC1c1nc2ccccc2s1 (configuration not stated) | inconclusive: 31.6 µM [inhibitor, single point] | – |
| CO/N=C/C(C#N)c1ncc(C(F)(F)F)cc1Cl (configuration not stated) | inconclusive: 35.5 µM [inhibitor, partial curve] | – |
| COc1ccc(-c2nnc(N(C)C(=O)c3ccco3)s2)cc1OC | inconclusive: 141 µM [inhibitor, single point] | – |
| O=C(Nc1ccnn1C1CCN(Cc2ccc(-c3ccco3)cc2)CC1)C1CC1 | active: 11.2 µM | – |
| COC(=O)[C@@]12C[C@@H](CC(=O)NCc3ccccc3)C(=O)N(Cc3ccco3)C1=CCC(C)(C)C2 | – | inactive: 1.54% |
| COc1ccc(S(=O)(=O)NCC(c2ccc(C)cc2)N2CCN(C)CC2)cc1 (configuration not stated) | inconclusive: 63.1 µM [inhibitor, partial curve, poor fit] | – |
| COc1ccc([C@H]2CC(=O)C=C(c3cccc(Cl)c3O)C2)cc1OC | active: 22.4 µM | – |
| Fc1ccc(-n2c(-c3ccc4ccccc4n3)n[nH]c2=S)cc1Cl | inconclusive: 6.31 µM [inhibitor, full curve, poor fit] | – |
| COc1cc(-c2noc(C)c2C(=O)NCCc2ccccc2)cc(OC)c1OC | inconclusive: 100 µM [inhibitor, single point] | – |
| CN(C1CCCCC1)S(=O)(=O)c1ccc2c(c1)c(=O)c(C(=O)NCc1ccc(F)cc1)cn2C | inconclusive: 50.1 µM [inhibitor, partial curve, poor fit] | – |
| CCN(CC)c1ccc(/C=N/NC(=S)NCc2ccc(OC)cc2)cc1 | inconclusive: 35.5 µM [inhibitor, partial curve, poor fit] | – |
| COc1ccc(N2C(=O)C(C)(C)CS2(=O)=O)cc1S(=O)(=O)NCc1ccco1 | inconclusive: 112 µM [inhibitor, partial curve, poor fit] | – |

| Structure (SMILES) | Potency | activity change, negative = inhibition |
| --- | --- | --- |
| CCCN(CCC)C(=O)c1cc2sc3ccccc3c2s1 | active: 5.01 µM | – |
| COc1ccccc1C1(c2ccc(O)cc2)CCCC1 | inconclusive: 50.1 µM [inhibitor, partial curve, poor fit] | – |
| Cc1ccc(S[C@@H](CCN2CC[C@H](NC(=O)OCc3ccccc3)CCC2=O)c2ccccc2)cc1 | inconclusive: 31.6 µM [inhibitor, partial curve, poor fit] | – |
| Nc1ncnc2nc(SCc3ccccc3)[nH]c12 | inconclusive: 17.8 µM [inhibitor, single point] | – |
| O=C(NCc1ccnc2[nH]ccc12)c1ccc2c(c1)OCO2 | inconclusive: 100 µM [inhibitor, partial curve] | – |
| O=C(NCc1c[nH]c(=O)[nH]c1=O)C1CCN(Cc2ccco2)CC1 | – | inactive: 19% |
| Cc1ccc(-c2[nH]c3ccccc3c2C=O)c(C)c1 | inconclusive: 8.91 µM [inhibitor, full curve] | – |
| O=C(C1CCCN(S(=O)(=O)c2ccccc2)C1)N1CCCCC1 (configuration not stated) | – | inactive: 21.4% |
| Cc1nc2scc(CC(=O)Nc3ccc(F)cc3)n2c(=O)c1-c1cc(C)n(-c2ccccc2F)n1 | inconclusive: 6.31 µM [inhibitor, full curve] | – |
| O=C(c1cccc(OC2CN(CC3CC=CCC3)C2)c1)N1CCCC1 (configuration not stated) | – | inactive: 20.2% |
| COc1ccc(C(CNC(=O)C2CCN(S(=O)(=O)c3ccc(C)cc3C)CC2)N(C)C)cc1 (configuration not stated) | inconclusive: 50.1 µM [inhibitor, partial curve, poor fit] | – |
| CC1CC2=C(CC1/C=N/NC(N)=S)C(C)(C)CCC2 (configuration not stated) | inconclusive: 28.2 µM [inhibitor, partial curve, poor fit] | – |
| C/C(=N/OC(=O)c1ccc(-c2ccccc2)cc1)c1cccs1 | inconclusive: 126 µM [inhibitor, partial curve, poor fit] | – |
| Cc1ccc(-c2nnn(Cc3cc(Cl)c4c(c3)OCCCO4)n2)cc1 | inconclusive: 44.7 µM [inhibitor, partial curve, poor fit] | – |
| Nc1c(C(=O)NC2CCCC2)nnn1-c1ccccc1 | – | inactive: 25.6% |
| CCOC(=O)c1cnc2c(C)cccc2c1Nc1ccc(O)cc1 | – | inactive: -27.9% |
| Nc1c(C(=O)O)sc2nc3c(cc12)CCCC3 | inconclusive: 89.1 µM [inhibitor, partial curve, poor fit] | – |
| Cc1ccc(SCCN2CCC(C(C)(C)C)CCC2=O)cc1 (configuration not stated) | – | inactive: -9.83% |
| CCOC(=O)c1c(NC(=S)N2CCN(C)CC2)sc2c1CCN(C(=O)OCC)C2 | inconclusive: 7.94 µM [inhibitor, full curve, poor fit] | – |
| CCN(CC)S(=O)(=O)c1ccc(C)c(NC(=S)Nc2ccc(F)c(F)c2F)c1 | inconclusive: 44.7 µM [inhibitor, partial curve, poor fit] | – |
| O=C(CC1Nc2ccccc2NC1=O)Nc1ccccc1C(F)(F)F (configuration not stated) | inconclusive: 28.2 µM [inhibitor, single point] | – |
| Cc1ccc(N=Nc2ccc(O)cc2)c(Br)c1 | – | inactive: 3.25% |
| Cc1ccc(C(C)C)c(OCCn2c(=O)oc3ccccc32)c1 | – | inactive: 27.4% |

| Structure (SMILES) | Potency | activity change, negative = inhibition |
| --- | --- | --- |
| Cc1nc(-c2cccc(Cl)c2)n(CC(=O)Nc2ccc(F)cc2)c(=O)c1CCO | inconclusive: 35.5 µM [inhibitor, partial curve] | – |
| C=CCc1cc(/C=C2/NC(=S)NC2=O)cc(OC)c1O | inconclusive: 22.4 µM [inhibitor, single point] | – |
| Cc1ccc(Nc2nc(N)nc(CN3CCN(Cc4ccc5c(c4)OCO5)CC3)n2)cc1C | – | inactive: -3.26% |
| COc1ccc(-c2[nH]nc3ncc(-c4cccc(CO)c4)nc23)c(C)c1 | inconclusive: 63.1 µM [inhibitor, full curve] | – |
| COCCSc1nnc(NC(=O)C2CC(=O)N(c3ccc(OC)cc3)C2)s1 (configuration not stated) | – | inactive: 6.35% |
| CCc1cc(C(c2ccc(OC)c(OC)c2)N2CCN(CC)CC2)c(NC(=O)c2ccco2)s1 (configuration not stated) | active: 15.8 µM | – |
| CCCOC(=O)c1ccc(NC(=O)C2C3C=CC(O3)C2C(=O)O)cc1 (configuration not stated) | inconclusive: 44.7 µM [inhibitor, single point] | – |
| CCN(CC)CC[C@H]1CN(C(=O)Cc2cccs2)CC[C@H]1CC(=O)O | inconclusive: 8.91 µM [inhibitor, full curve] | – |
| O=c1ccc2c(-c3ccccc3)c3ccc(O)cc3oc-2c1 | inconclusive: 44.7 µM [inhibitor, partial curve, poor fit] | – |
| Cc1cc(C)cc(Oc2nc3ccccn3c(=O)c2/C=C(\C#N)c2nc3ccccc3s2)c1 | inconclusive: 5.62 µM [inhibitor, full curve, poor fit] | – |
| CCc1ccccc1NC(=O)C(=O)c1c(C)[nH]c2ccccc12 | – | inactive: 20.9% |
| COc1ccc(S(=O)(=O)NC(=O)C2(C)CCN2C(=O)Cc2cccc3ccccc23)cc1 (configuration not stated) | inconclusive: 56.2 µM [inhibitor, single point] | – |
| CCC(c1nnnn1CCOC)N1CCN(Cc2ccccc2)CC1 (configuration not stated) | inconclusive: 39.8 µM [inhibitor, partial curve, poor fit] | – |
| COc1ccc(NC(=O)COc2ccc3c(C)cc(=O)oc3c2)cc1S(=O)(=O)N1CCCCC1 | inconclusive: 89.1 µM [inhibitor, partial curve, poor fit] | – |
| Cn1c(=O)cc(SCC(=O)N2CCN(c3ccccc3F)CC2)c2ccc(Cl)cc21 | – | inactive: -19.6% |
| CC1CCCCC1NC(=O)CCCCCn1c(=S)[nH]c2ccsc2c1=O (configuration not stated) | – | inactive: 0% |
| O=c1c(-c2ccco2)[n+]([O-])c2ccccc2n1OCc1ccccn1 | inconclusive: 31.6 µM [inhibitor, partial curve, poor fit] | – |
| O=C(NN=C1CCCC1)c1cccc(O)c1 | inconclusive: 2.24 µM [inhibitor, full curve, poor fit] | – |
| O=C1NN(c2ccccc2)C(=O)/C1=C/c1ccc(Sc2cccc3ccccc23)o1 | inconclusive: 7.94 µM [inhibitor, full curve, poor fit] | – |
| Cc1nn(C)c2nc(NCCC(=O)N3CCC(C)CC3)sc12 | inconclusive: 28.2 µM [inhibitor, partial curve, poor fit] | – |
| CCN(Cc1cccs1)C(=O)c1ccc(NS(C)(=O)=O)cc1 | – | inactive: 2.34% |

Among those listed so far, 2 have a cyano group.

| Structure (SMILES) | Potency | activity change, negative = inhibition |
| --- | --- | --- |
| CO/N=C/C(C#N)c1ncc(C(F)(F)F)cc1Cl (configuration not stated) | inconclusive: 35.5 µM [inhibitor, partial curve] | – |
| Cc1cc(C)cc(Oc2nc3ccccn3c(=O)c2/C=C(\C#N)c2nc3ccccc3s2)c1 | inconclusive: 5.62 µM [inhibitor, full curve, poor fit] | – |
